We go through four compounds from patent publication US20100184178A1, “INCREASED ISOPRENE PRODUCTION USING MEVALONATE KINASE AND ISOPRENE SYNTHASE” (priority 2008, published 2010).

Structures are written as SMILES.

Data set [1] in a line: Intracellular metabolite concentrations in E. coli sampled from fermentors, LC-ESI-MS/MS. Particulars: for intracellular level: MCM343, after 100 μM IPTG; for intracellular concentration during the production period: MCM400 (Streptomyces MVK), 4×50 μM IPTG. In kind it is cell-based.
Data set [2] is classed as cell-based, E. coli. To be noted: strain with MVK plus PMK plus MDD; fed 5.8 mM MVA, sampled 2 hours post MVA addition.

Consider `C=C(C)CCOP(=O)(O)OP(=O)(O)O` [IPP, isopentenyl diphosphate], for which, in data set [1], the intracellular level entry is “dropped below the detection limit”.

Take `C[C@@](O)(CCO)CC(=O)O` [MVA, mevalonic acid]: in data set [2], the MVA consumed was found to be 2.9 mM.

`C[C@@](O)(CCOP(=O)(O)O)CC(=O)O` [MVP, mevalonate-5-phosphate]: in data set [1], the intracellular level result is “No MVP or MVPP were detected” and the “intracellular concentration during the production period” value is “below the detection limit”.

For `C[C@@](O)(CCOP(=O)(O)OP(=O)(O)O)CC(=O)O` [MVPP, mevalonate-5-diphosphate], in data set [1], the intracellular level entry is recorded as “No MVP or MVPP were detected” and the “intracellular concentration during the production period” value is reported as “below the detection limit”.
